Reference: PMC12643354, “From Oxygen to Tellurium: The Impact of the Chalcogen on Nucleophilicities and Basicities of Isochalcogenourea Catalysts” (Angewandte Chemie (International Ed. in English), 2025)

Assay: Trapping of catalyst-allenoate adducts, 1H NMR monitoring of allenoate decrease
Settings: 1:1:1 allenoate, catalyst hydrochloride in CDCl3, 298 K

SMILES	Rate of addition to allenoate (formation of adducts 28 and 29)
c1ccc2c(c1)[Te]C1=NCCCN12 [ITeU3, TeDHPB]	so fast that it could not be followed by these NMR techniques anymore
CC(C)[C@@H]1CN2C(=N[C@@H]1c1ccccc1)[Se]c1ccccc12 [ISeU5, SeHyperBTM]	fastest
